Experimental data taken from publication PMC3983220.
Changes are numbered by the printed parent chain. For at least one entry, the source does not settle the construct or the ends of the probe. Tags and fusion partners may be left off the protein sequences shown.

How the values were obtained:
Assay in all cases: fluorescence anisotropy
[1] = target: T1, FL hPus1p (Homo sapiens) (UniProt Q9Y606); settings: 5-fluorouridine at U206-equivalent position (index in oligo not given), 10 mM HEPES pH 7.0, 150 mM NaCl, 5 mM MgCl2, 5 mM TCEP, 20°C, RNA fixed at 1 µM, recombinant protein, protein details: N-terminal 9xHis, TEV-cleaved, label: 5'-fluorescein, letters put together from the description
T1 sequence (looked up, limits assumed): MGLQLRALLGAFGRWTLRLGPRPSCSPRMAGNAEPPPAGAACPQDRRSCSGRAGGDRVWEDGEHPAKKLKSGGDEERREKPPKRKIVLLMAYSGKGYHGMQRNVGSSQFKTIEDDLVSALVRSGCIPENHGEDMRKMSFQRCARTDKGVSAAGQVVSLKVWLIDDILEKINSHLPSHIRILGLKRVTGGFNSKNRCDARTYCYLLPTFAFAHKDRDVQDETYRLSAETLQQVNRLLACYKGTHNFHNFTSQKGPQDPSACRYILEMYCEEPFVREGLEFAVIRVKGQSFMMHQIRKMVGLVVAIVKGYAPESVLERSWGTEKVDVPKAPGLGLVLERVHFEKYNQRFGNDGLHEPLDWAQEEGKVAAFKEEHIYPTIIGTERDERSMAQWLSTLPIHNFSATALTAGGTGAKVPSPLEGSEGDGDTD

[2] = target: T2, ΔhPus1p (Homo sapiens) (UniProt Q9Y606); settings: 5-fluorouridine at U206-equivalent position (index in oligo not given), 10 mM HEPES pH 7.0, 150 mM NaCl, 5 mM MgCl2, 5 mM TCEP, 20°C, RNA fixed at 1 µM, recombinant protein, residues 83-394, protein details: N-terminal 9xHis, TEV-cleaved, label: 5'-fluorescein, letters put together from the description
T2 sequence (looked up): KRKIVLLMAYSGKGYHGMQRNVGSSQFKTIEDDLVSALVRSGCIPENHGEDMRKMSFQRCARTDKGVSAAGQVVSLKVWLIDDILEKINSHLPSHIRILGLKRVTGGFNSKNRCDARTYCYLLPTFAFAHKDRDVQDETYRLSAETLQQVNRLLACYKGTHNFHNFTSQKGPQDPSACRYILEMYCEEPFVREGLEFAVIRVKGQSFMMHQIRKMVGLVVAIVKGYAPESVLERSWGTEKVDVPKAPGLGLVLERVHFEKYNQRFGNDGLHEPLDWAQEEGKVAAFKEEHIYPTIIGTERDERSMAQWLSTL

[3] = target: T3, D146A ΔhPus1p (Homo sapiens) (UniProt Q9Y606); settings: n=1; 5-fluorouridine at U206-equivalent position (index in oligo not given); 10 mM HEPES pH 7.0, 150 mM NaCl, 5 mM MgCl2, 5 mM TCEP, 20°C; RNA fixed at 1 µM; recombinant protein; residues 83-394; protein details: N-terminal 9xHis, TEV-cleaved; label: 5'-fluorescein; letters put together from the description
T3 sequence (looked up): T2 sequence (looked up) with D64A

“GCCAAUGGGUUCGCCCCACCUGUG [H7 SRA truncation 3]” was tested, and the Kd ([1]; n=1) was 122 nM and the Kd ([2]; n=0.7) was 95 nM.
GCCCCAAUACCUGUGGG [H7 SRA truncation 4] gave a Kd ([1]; n=0.7) of 96 nM and a Kd ([2]; n=0.8) of 74 nM.
“GCCCCAAUGGGGCCUUUCGAGGUCCCCACCUGUGGG [H7 SRA truncation 1]” gave a Kd ([1]; n=1) of 103 nM and a Kd ([2]; n=0.8) of 219 nM.
Sequence “GCCCCAAUGGGGCCUCCACCUCCUUCAAGUAAGGCUCCCAGGUCCCCACCUGUGGG [H7 SRA FL]” has a Kd ([1]; n=1) of 219 nM and a Kd ([2]; n=1) of 484 nM.
In the case of “GCCCCAAUGGGGUUCGCCCCACCUGUGGG [H7 SRA truncation 2]”, the Kd [3] is reported as 3900 nM, the Kd ([1]; n=0.8) is reported as 111 nM and the Kd ([2]; n=1) is reported as 94 nM.
